The text below walks through data of US20150368327A1.

In assay [1] the target is T1, recombinant human Sema 3A-Fc chimeric protein (R&D systems, #1250-S3-02J) (human) (UniProt Q14563).
T1 sequence (looked up): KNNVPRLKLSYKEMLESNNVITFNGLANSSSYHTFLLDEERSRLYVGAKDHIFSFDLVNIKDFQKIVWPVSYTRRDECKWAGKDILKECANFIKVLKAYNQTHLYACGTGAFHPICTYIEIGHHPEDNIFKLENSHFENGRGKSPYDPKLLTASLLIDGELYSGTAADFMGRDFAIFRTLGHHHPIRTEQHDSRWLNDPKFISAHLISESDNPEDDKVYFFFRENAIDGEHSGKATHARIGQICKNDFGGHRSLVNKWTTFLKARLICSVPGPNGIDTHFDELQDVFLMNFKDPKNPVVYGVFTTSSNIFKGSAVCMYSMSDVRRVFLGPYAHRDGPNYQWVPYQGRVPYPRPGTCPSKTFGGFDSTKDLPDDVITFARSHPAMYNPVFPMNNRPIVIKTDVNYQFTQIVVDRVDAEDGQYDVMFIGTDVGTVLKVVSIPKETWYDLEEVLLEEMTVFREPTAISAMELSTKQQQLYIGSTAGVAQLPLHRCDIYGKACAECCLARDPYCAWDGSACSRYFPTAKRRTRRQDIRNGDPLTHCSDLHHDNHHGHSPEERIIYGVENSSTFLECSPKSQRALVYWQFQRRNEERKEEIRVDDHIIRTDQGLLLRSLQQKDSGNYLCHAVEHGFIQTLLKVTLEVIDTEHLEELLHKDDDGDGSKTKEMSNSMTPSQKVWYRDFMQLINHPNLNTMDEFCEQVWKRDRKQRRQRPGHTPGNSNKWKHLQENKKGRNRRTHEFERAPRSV
Description: sandwich ELISA, serum-free samples, Condition 3; this antibody as capture, clone No. 240-40 avian antibody as primary. For orientation: ELISA stands for enzyme-linked immunosorbent assay.

In assay [2] the target is T1, recombinant human Sema 3A-Fc chimeric protein (R&D systems, #1250-S3-02J) (human). Description: sandwich ELISA, serum-free samples, Condition 4; this antibody as capture, clone No. 255-72 avian antibody as primary.
Assay [3] has the same target. Put plainly: sandwich ELISA, serum-free samples, Condition 1; this antibody as capture, clone No. 165 avian-mouse chimeric antibody as primary.
Assay [4] shares this target. Description: sandwich ELISA, serum-free samples, Condition 2; this antibody as capture, clone No. 582 avian-mouse chimeric antibody as primary.
For assay [5] the target is unchanged. Description: sandwich ELISA, serum-containing samples, Condition 1; this antibody as capture, clone No. 165 avian-mouse chimeric antibody as primary.
Assay [6] shares this target. Put plainly: sandwich ELISA, serum-containing samples, Condition 2; this antibody as capture, clone No. 582 avian-mouse chimeric antibody as primary.
Assay [7] shares this target. Put plainly: sandwich ELISA, serum-free samples: Humanized-2 coated as capture antibody, Sema 3A-Fc about 0.001 to 1 nM, primary antibodies m9, m10, m11, m12 at 0.1 µg/mL.
Assay [8] has the same target. Put plainly: sandwich ELISA, samples in human serum diluted five times: Humanized-2 coated as capture antibody, Sema 3A-Fc about 0.001 to 2 nM, primary antibodies of Conditions 1 and 2.
Assay [9] has the same target. Put plainly: sandwich ELISA, serum-free samples: capture Humanized-2, Sema 3A-Fc varied, primary antibody of clone No. 165 at 0.1 µg/mL, anti-mouse IgG-HRP.
For assay [10] the target is unchanged. Put plainly: sandwich ELISA, samples in human serum diluted five times: capture Humanized-2, Sema 3A-Fc varied, primary antibody of clone No. 165 at 0.1 µg/mL, anti-mouse IgG-HRP.
Assay [11] has the same target. Description: sandwich ELISA, serum-free samples, Condition 6; this antibody as capture, clone No. 4-2 avian-mouse chimeric antibody as primary.
Assay [12] shares this target. Description: sandwich ELISA, serum-free samples: capture Humanized-2, Sema 3A-Fc varied, primary avian antibody of clone No. 255-72 at 0.1 µg/mL, biotin-labelled anti-avian IgM and streptavidin-HRP.
Assay [13] shares this target. Put plainly: sandwich ELISA, serum-free samples, Condition 7; this antibody as capture, clone No. 4-2 avian-mouse chimeric antibody as primary.
Assay [14] shares this target. Put plainly: sandwich ELISA, serum-free samples: capture Humanized-2, Sema 3A-Fc varied, primary antibody of clone No. 582 at 0.1 µg/mL, anti-mouse IgG-HRP.
For assay [15] the target is unchanged. Description: sandwich ELISA, samples in human serum diluted five times: capture Humanized-2, Sema 3A-Fc varied, primary antibody of Condition 2 (clone No. 582 by Table 7; the legend box of the panel reads 165) at 0.1 µg/mL, anti-mouse IgG-HRP.
For assay [16] the target is unchanged. Description: sandwich ELISA, serum-free samples, Condition 8; this antibody as capture, clone No. 4-2 avian-mouse chimeric antibody as primary.
The target is the same in assay [17]. Description: sandwich ELISA, serum-free samples, Condition 5; this antibody as capture, clone No. 4-2 avian-mouse chimeric antibody as primary.
Assay [18] has the same target. Put plainly: sandwich ELISA, serum-free samples: capture Humanized-2, Sema 3A-Fc varied, primary avian antibody of clone No. 240-40 at 0.1 µg/mL, biotin-labelled anti-avian IgM and streptavidin-HRP.

No constants are given. Whether binding was seen depends on the method and setting. Some binding calls cover weakened binding; strength is not graded here. Where a sequence is shown, tags or fusion partners need not be part of it.

B1: Anti-Sema 3A humanized antibody (Humanized-2) (clone No. 4-2 strain-derived) (antibody, human IgG1, lambda, V domains shown)
VH: EVQLLESGGGLVQPGGSLRLSCAASGFTFSSYPMGWVRQAPGKGLEWVAGIDDDGDSDTRYAPAVKGRATISRDNSKNTVYLQMNSLRAEDTAVYYCAKHTGIGANSAGSIDAWGQGTLVTVSS
VL: SYELTQPPSVSVSPGQTARITCSGGGSYTGSYYYGWYQQKPGQAPVTVIYYNNKRPSDIPERFSGSLSGTTNTLTISGVQAEDEADYYCGSADNSGDAFGTGTKVTVLG
In the case of B1, the binding result in [1], in [2], in assay [3], in [4], in [5] and in assay [6] was “binds” throughout. Besides, the binding result in [7] and in assay [8] was “binds” each time.

B2: Anti-Sema 3A avian-mouse chimeric antibody (clone No. 165 strain-derived) (antibody, V domains shown)
VH: AVTLDESGGGLQTPGGGLSLVCKASGFTFSSYEMQWVRQAPGKGLEWVAGIYTGSTWYGAAVKGRATISRDNGQSTVRLQLNNLRAEDTAIYYCAKSGIGVNSAAFIDAWGHGTEVIVSS
VL: ALTQPASVSANPGETVKITCSGGGSYGGSYYYGWYQQKAPGSAPVTVIYNNNKRPSNIPSRFSGSLSGSTNTLTITGVRADDEAVYFCGSADNSGTAFGAGTTLTVL
Turning to B2, the binding result in [9] and in assay [10] was “binds” throughout.

B3: Anti-Sema 3A avian antibody (clone No. 255-72 strain-derived) (antibody, V domains shown)
VH: AVTLDESGGGLQTPGGALSLVCKASGFTFSSYEMQWVRQAPGKGLEWVAGIYSGSTWYGAAVKGRATISRDNGQSTVRLQLNNLRAEDTGTYYCAKSGIGFNSAGSIDAWGHGTEVIVSS
VL: ALTQPASVSANPGETVKITCSGGGSYGGSYYYSWHQQKSPGSALVTVIYYNNKRPSDIPSRFSGSLSGSTNTLTITGVRADDEAVYFCGSADNSGSAFGAGTTLTVL
Consider B3, for which the binding entry in assay [11] and in assay [12] was “binds” throughout.

B4: Anti-Sema 3A avian-human chimeric antibody (IgG1) (clone No. 240-40 strain-derived) (antibody, V domains shown)
VH: AVTLDESGGGLQTPGGALSLVCKASGFTFSSYDMNWVRQAPGKGLEWVAGIYSGSSTYYGAAVKGRATISRDNGQSTLRLQLNNLRAEDTGIYYCAKSAIPVNSAGSIDAWGHGTEVIVSS
VL: ALTQPASVSANPGETVKITCSGGGSYGGSYYYSWHQQKSPGSALVTVIYYNNKRPSDIPSRFSGSLSGSTNTLTITGVRADDEAVYFCGSADTSGTAFGAGTTLTVL
Regarding B4, the binding entry in [13] is “binds”.

B5: Anti-Sema 3A avian-mouse chimeric antibody (clone No. 582 strain-derived) (antibody, V domains shown)
VH: AVTLDESGGGLQTPGGALSLVCKASGFTMSSYEMQWVRQAPGKGLEWVAAIYTRSTWYGAAVKGRATISRDNGQSTVRLQLNNLRAEDTGTYYCAKSGIGLNSAAFIDAWGHGTEVIVSS
VL: ALTQPASVSANPGETVKITCSGGGSYGGSYYYGWYQQKAPGSAPVTVIYTNNKRPSNIPSRFSGSLSGSTNTLTITGVRADDEAVYFCGSADNSGTAFGAGTTLTVL
Take B5: the binding entry in assay [14] and in assay [15] was “binds” throughout.

B6: Anti-Sema 3A avian-human chimeric antibody (IgG1) (clone No. 255-72 strain-derived) (antibody, V domains shown)
VH: AVTLDESGGGLQTPGGALSLVCKASGFTFSSYEMQWVRQAPGKGLEWVAGIYSGSTWYGAAVKGRATISRDNGQSTVRLQLNNLRAEDTGTYYCAKSGIGFNSAGSIDAWGHGTEVIVSS
VL: ALTQPASVSANPGETVKITCSGGGSYGGSYYYSWHQQKSPGSALVTVIYYNNKRPSDIPSRFSGSLSGSTNTLTITGVRADDEAVYFCGSADNSGSAFGAGTTLTVL
For the molecule B6, the binding result in [16] is “binds”.

B7: Anti-Sema 3A avian antibody (clone No. 240-40 strain-derived) (antibody, V domains shown)
VH: AVTLDESGGGLQTPGGALSLVCKASGFTFSSYDMNWVRQAPGKGLEWVAGIYSGSSTYYGAAVKGRATISRDNGQSTLRLQLNNLRAEDTGIYYCAKSAIPVNSAGSIDAWGHGTEVIVSS
VL: ALTQPASVSANPGETVKITCSGGGSYGGSYYYSWHQQKSPGSALVTVIYYNNKRPSDIPSRFSGSLSGSTNTLTITGVRADDEAVYFCGSADTSGTAFGAGTTLTVL
In the case of B7, the binding entry in assay [17] and in assay [18] was “binds” each time.
